The target in the data set is E-selectin (human, on breast tumor vessels) (human) (UniProt P16581). In words: fluorescence staining of tissue sections with antibody blocking. The settings on record: 50 nM Cy3-ESTA, binding abolished by anti-E-selectin mAb, not by normal IgG, monothiophosphate substitution at the adenines marked by asterisks (A*), tissue sections fixed with 4% paraformaldehyde, pH and temperature not stated, protein on the cell surface, label: Cy3, single-stranded DNA.

Amino acid sequences for entries named in this document (tags omitted). Residues count along the entry.
UniProt P16581, 22-610: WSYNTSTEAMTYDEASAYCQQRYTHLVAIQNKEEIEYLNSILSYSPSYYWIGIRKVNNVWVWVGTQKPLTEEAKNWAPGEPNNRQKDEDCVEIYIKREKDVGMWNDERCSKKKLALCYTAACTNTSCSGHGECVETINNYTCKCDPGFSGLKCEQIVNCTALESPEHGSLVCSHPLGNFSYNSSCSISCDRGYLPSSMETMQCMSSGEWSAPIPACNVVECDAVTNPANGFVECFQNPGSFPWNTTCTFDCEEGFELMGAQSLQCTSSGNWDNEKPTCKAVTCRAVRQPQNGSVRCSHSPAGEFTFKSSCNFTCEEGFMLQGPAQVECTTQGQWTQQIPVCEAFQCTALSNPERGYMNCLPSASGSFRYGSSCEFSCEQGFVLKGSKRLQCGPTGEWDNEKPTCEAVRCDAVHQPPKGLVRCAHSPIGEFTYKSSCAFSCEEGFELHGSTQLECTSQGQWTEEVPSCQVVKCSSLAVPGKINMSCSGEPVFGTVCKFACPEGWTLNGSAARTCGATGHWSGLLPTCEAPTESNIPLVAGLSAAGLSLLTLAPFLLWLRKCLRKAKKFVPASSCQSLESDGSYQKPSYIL

Construct, isoform or probe ends are uncertain for at least one entry. Results from cells or extracts need not show a direct contact.

Consider “CGCTCGGATCGATAAGCTTCGATCCCACTCTCCCGTTCACTTCTCCTCACGTCACGGATCCTCTAGAGCACTG [ESTA (anti-E-selectin thioaptamer)]”, for which the binding result was “binds”.
